Assay results taken from paper PMC5908791.
Results are given in words; binding and its absence hold for the method and conditions named. Some entries that bind do so weakly or less than the wild type.

Protein sequences, listed by entry. Tags and fused reporters are not part of them. Lines headed by an entry give the natural chain unless they say otherwise; changes in a name come on top. Chains listed by the source or under a name are the forms on record and can include a tag or linker. Residues count along the entry.
Gallus gallus SOCS1 without its SOCS Box domain (residues 48-164) (A0A8V0ZGP4, form named): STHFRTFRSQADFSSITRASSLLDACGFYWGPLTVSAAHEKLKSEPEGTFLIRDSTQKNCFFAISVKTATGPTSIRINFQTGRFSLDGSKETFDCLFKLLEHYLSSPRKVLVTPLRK

Biological target: human JAK1 kinase domain (human) (UniProt P23458)
Experiment: crystal structure; ggSOCS1 48-164 and human JAK1 kinase domain co-expressed in Sf21 and co-purified, with ADP bound; hanging drop, 8 °C, 100 mM HEPES pH 7.0, 14% PEG 8000, 100 mM MgAc; 2.5 Å; both purified

binding: binds
Substance: Gallus gallus SOCS1 without its SOCS Box domain (residues 48-164) (from UniProt A0A8V0ZGP4 48-164) (domain or fragment)
